Test results published in patent publication EP3204002B1, “PHARMACEUTICAL COMBINATION FOR THE TREATMENT OF TUMORS” (International Society for Drug Development S.r.l., priority 2014, dated 2016).
At least one compound was matched to its structure with a doubt left.

How the values were obtained:
U118-MG = assay: cell viability / cytotoxicity by WST-1 colorimetric assay in U118-MG; format: cell-based, human; conditions: alone, 100µM
Method: (§1) The cell line ANGM-CSS and U118-MG were used, human glioblastoma multiforme (GBM) lines. The ANGM-CSS cell line (ECACC cat n°08040401) was supplied by Dr. Angelo Notarangelo, Laboratorio di Citogenetica, IRCCS Casa Sollievo della Sofferenza, San Giovanni Rotondo (FG), Italy. The U118-MG line was purchased from ATCC, Manassas, VA, USA. The culture medium consisted of DMEM:HAMS F12 (1:1) (Sigma-Aldrich) with the addition of 2mM of L-Glutamine (Sigma Aldrich), 10% Fetal Bovine Serum (FBS, Sigma-Aldrich), 100 units/ml penicillin and 100µg/ml streptomycin (P/S) at 37°C in an atmosphere with 5% CO2.
(§2) The cytotoxicity was evaluated via a colorimetric assay, using WST-1 (4-[3-(4-iodophenyl)-2-(4-nitrophenyl)-2H-5-tetrazolium]-1,3-benzene disulfonate) (Roche, Mannheim, Germany). The inhibition of the cell proliferation is expressed as a percentage of the absorbance at 450nm relative to the non-treated cells in culture. The absorbance was measured by an Enspire microplate reader (PerkinElmer, Wellesley, MA, USA).
(§3) The compound 1 was tested on the two cell lines of human glioblastoma multiforme ANGM-CSS and U118MG, which are resistant to temozolomide.

ANGM-CSS = assay: cell viability / cytotoxicity by WST-1 colorimetric assay in ANGM-CSS; format: cell-based, human; conditions: alone, 100 µM
Method: as §1, §2, §3

Cn1nnc2c(C(N)=O)ncn2c1=O [temozolomide, reference compound]
cell viability (U118-MG): reduction in viability
cell viability (ANGM-CSS): no significant effect on cell viability
